Data taken from ChEMBL document CHEMBL3988442, “University of Dundee, Small-Polar-MMV Screening Library” (2021).

Chains of the proteins cited; added tags and fusions are not shown.
UniProt E9BF75, entry or part of it: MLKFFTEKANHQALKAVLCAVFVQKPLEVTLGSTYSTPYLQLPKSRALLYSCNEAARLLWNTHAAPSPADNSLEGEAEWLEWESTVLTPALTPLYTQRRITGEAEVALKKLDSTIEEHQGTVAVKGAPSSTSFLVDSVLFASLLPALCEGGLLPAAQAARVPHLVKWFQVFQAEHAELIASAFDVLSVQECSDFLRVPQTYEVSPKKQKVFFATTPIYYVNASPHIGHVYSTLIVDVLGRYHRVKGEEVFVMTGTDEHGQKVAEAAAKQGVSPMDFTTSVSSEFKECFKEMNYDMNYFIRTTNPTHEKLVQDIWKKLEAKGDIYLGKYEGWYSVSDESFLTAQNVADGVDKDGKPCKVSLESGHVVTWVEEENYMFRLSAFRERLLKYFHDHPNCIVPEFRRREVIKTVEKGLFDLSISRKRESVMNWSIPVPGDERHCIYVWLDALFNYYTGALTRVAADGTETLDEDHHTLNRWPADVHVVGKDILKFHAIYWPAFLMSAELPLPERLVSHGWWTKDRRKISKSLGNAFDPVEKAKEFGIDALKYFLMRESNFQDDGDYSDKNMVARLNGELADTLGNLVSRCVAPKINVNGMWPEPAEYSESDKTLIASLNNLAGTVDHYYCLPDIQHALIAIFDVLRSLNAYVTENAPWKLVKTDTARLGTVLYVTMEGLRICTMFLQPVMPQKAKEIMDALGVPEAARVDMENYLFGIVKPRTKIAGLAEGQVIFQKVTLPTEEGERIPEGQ

Results are percentages, as filed.
How 0% and 100% were set is not recorded. Most values in the screen are low, and negative values occur.
The compounds are a random part of those screened.

A: 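Methionyl-tRNA synthetase (putative), Leishmania donovani (UniProt E9BF75). Primary screen of methionyl-tRNA synthetase; the read-out is not stated. The test concentration is not given. Values are per cent inhibition. About 68,000 compounds were tested under these conditions; 0.035% (about 24) showed 50% or more at least once.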
B: 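Assay on Mycobacterium tuberculosis, filed only as a heat shock assay from Cornell; the read-out is not stated. The concentration is filed as 10 mM, unlikely as a test dose, so the dose is not known. Higher reads as stronger inhibition (inferred: compounds with an IC50 in retests scored well above the rest). Of about 69,000 compounds tested this way, about 930 (1.4%) reached 50% or more in at least one test.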

{"compound": "Cc1csc2c(N3CCC(Cn4cc(C(C)(C)O)nn4)CC3)ncnc12", "A": 10.08, "B": -1.211}
{"compound": "CC(Cc1c(F)cccc1F)NC(=O)CN(CC(N)=O)C(C)C", "stereo": "stereo not shown", "A": 0.9926, "B": 10.83}
{"compound": "Cc1ccncc1CN1CCOCC1c1[nH]ncc1C", "stereo": "stereo not shown", "A": 12.79, "B": 0.6414}
{"compound": "Cc1nn(C)c(N(C)C)c1CNCc1ccccc1Cn1cccn1", "A": 13.47, "B": 5.899}
{"compound": "CCn1cc(NC(=O)c2cccc(OCC(F)(F)F)n2)cn1", "A": 16.54, "B": -3.577}
{"compound": "Cc1ccccc1CN1CCCN(C(=O)c2ccn(C)c(=O)c2)CC1", "A": 6.266, "B": 6.347}
{"compound": "O=C(O)C(F)(F)F.O=C(O)C(F)(F)F.[H][C@@]12CCN(Cc3ccccn3)[C@]1([H])CC[C@@H](c1nnc(C)o1)O2", "B": -27.19}
{"compound": "c1nc(CN2CCC3(CC2)COCCN3CC2CC2)c[nH]1", "A": 11.24}
{"compound": "CC(=O)N1Cc2nccn2CC(CNC(=O)c2cccnc2)C1.O=C(O)C(F)(F)F", "stereo": "stereo not shown", "B": -16.15}
{"compound": "CC(=O)N1CCCN(CCCSc2ccccc2Cl)CC1", "A": 9.589, "B": -15.75}
{"compound": "O=C(O)C(F)(F)F.[H][C@@]12COC[C@]1([H])[C@H](OCc1csc(C)n1)CN2Cc1cccs1", "B": -37.79}
{"compound": "Cc1nccc(-c2cccc(-c3ccn(CC4CCNC4)n3)c2)n1", "stereo": "stereo not shown", "A": -1.023, "B": -11.22}
{"compound": "Cc1noc(C)c1CNC(=O)N(C1CC1)C(C)c1ccco1", "stereo": "stereo not shown", "A": 5.208, "B": 0.942}
{"compound": "CO[C@H]1CN(C(=O)OC(C)(C)C)CC1NCc1cccn1C", "stereo": "stereo partly shown", "A": 11.82, "B": 5.285}
{"compound": "Cn1cnnc1C1CCCN(C(=O)NCCOc2ccccc2)C1", "stereo": "stereo not shown", "A": 2.083, "B": -9.871}
{"compound": "CCn1nc(C)c(CNC(=O)c2nnc3ccccc3n2)c1C", "A": 9.348, "B": -14.1}
{"compound": "CCc1noc(C2CCCCN2C(=O)c2cc(C)n(C)n2)n1", "stereo": "stereo not shown", "A": -41.96, "B": -3.327}
{"compound": "[H][C@@]12COC[C@]1(c1nnc(C3CC3)o1)CN(C(=O)c1ncccn1)C2", "B": -8.453}
{"compound": "CC(=O)NCC1CCN(c2ccnc3ccc(Br)cc23)CC1", "A": 16.48, "B": 5.93}
{"compound": "CCn1cnnc1CCNC(=O)CCNC(=O)c1ccccc1F", "A": 17.33, "B": -10.81}
{"compound": "O=C(O)[C@@H]1CN(C(=O)CCc2ccccn2)C[C@H]1c1ccccc1", "A": 9.61, "B": -10.81}
{"compound": "CN(C(=O)c1cccc(C(=O)NS(C)(=O)=O)c1)c1ccccc1", "A": 10.24, "B": 10.23}
{"compound": "O=C(Nc1ccc(F)cc1)N1C[C@H]2CC[C@@H]1CN(Cc1cccnc1)C2", "A": 11.33}
{"compound": "Cc1nc(CC(=O)N2CCC(c3nn(C)c4ncccc34)CC2)cs1", "A": 5.208}
{"compound": "Cc1nnc(NCc2ccccc2Cl)c(C#N)c1C", "A": 23.17, "B": 29.74}
{"compound": "Cc1nc(N2CCCC2)nc2c1CN(C(C)C)CC2.O=C(O)C(F)(F)F", "B": 7.339}
{"compound": "O=C(Nc1cccnc1)[C@H]1CO[C@H]2CCN(c3ncc(F)cn3)C[C@H]2C1", "A": 19.67}
{"compound": "O=C(Cn1ccc2c(Cl)cccc21)N1CCC2(CC1)OCCO2", "A": 6.667, "B": 6.229}
{"compound": "O=C(Cn1nc(C(F)(F)F)c(Cl)c1C1CC1)NN1CCOCC1", "A": 10.2, "B": 4.896}
{"compound": "CCn1c(C2CCCN(Cc3ccc4ccccc4n3)C2)nn(C)c1=O", "stereo": "stereo not shown", "A": 12.1, "B": 22.18}
{"compound": "Cc1ccc(C(=O)N2CCC(=O)N(CC3CC3)C(C(C)C)C2)c(=O)[nH]1", "stereo": "stereo not shown", "A": 2.799, "B": -30.16}
{"compound": "Cc1ccc(-c2noc(Cn3nc(C(N)=O)ccc3=O)n2)cc1", "A": 13.01, "B": -7.509}

Some entries from above, unchanged:

Result for Cc1ccncc1CN1CCOCC1c1[nH]ncc1C (stereo not shown) was A: 12.79%; B: 0.6414%.
Result for Cc1nnc(NCc2ccccc2Cl)c(C#N)c1C was A: 23.17%; B: 29.74%.
Result for Cn1cnnc1C1CCCN(C(=O)NCCOc2ccccc2)C1 (stereo not shown) was A: 2.083%; B: -9.871%.
Result for O=C(O)[C@@H]1CN(C(=O)CCc2ccccn2)C[C@H]1c1ccccc1 was A: 9.61%; B: -10.81%.